Source: the supplement of paper PMC10849652
The other results are listed elsewhere or left out.

Sequences of proteins named here, by UniProt entry; tags and fusion partners are left off. A change or cut given only in a name is not applied to a line headed by its entry.
UniProt O60870: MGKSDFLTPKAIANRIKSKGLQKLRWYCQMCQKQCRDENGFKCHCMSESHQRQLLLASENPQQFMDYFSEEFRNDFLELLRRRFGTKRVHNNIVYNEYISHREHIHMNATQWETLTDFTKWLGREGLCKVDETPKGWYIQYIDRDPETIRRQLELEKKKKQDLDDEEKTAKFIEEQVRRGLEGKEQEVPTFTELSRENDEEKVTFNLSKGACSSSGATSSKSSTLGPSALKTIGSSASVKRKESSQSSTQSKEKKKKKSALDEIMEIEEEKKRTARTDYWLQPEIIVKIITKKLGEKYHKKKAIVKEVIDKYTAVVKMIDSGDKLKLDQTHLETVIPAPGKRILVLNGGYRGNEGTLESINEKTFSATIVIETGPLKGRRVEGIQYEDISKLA
UniProt P13473: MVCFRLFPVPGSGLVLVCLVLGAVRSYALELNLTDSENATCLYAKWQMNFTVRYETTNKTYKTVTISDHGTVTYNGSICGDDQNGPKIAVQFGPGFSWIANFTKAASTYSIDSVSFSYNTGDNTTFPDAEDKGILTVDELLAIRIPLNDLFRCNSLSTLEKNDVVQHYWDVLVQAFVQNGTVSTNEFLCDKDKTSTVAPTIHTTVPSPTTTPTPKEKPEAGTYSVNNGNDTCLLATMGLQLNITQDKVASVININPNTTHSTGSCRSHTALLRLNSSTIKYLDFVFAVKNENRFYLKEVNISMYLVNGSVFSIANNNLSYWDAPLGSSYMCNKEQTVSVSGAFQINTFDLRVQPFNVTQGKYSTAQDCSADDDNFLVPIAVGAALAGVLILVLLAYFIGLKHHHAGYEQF
UniProt Q6IAA8, whole entry, looked up: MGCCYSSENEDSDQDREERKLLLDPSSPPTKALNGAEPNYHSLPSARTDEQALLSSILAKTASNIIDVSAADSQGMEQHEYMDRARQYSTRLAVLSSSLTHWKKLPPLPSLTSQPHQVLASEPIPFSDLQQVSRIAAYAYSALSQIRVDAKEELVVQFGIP
UniProt O14686, whole entry, looked up: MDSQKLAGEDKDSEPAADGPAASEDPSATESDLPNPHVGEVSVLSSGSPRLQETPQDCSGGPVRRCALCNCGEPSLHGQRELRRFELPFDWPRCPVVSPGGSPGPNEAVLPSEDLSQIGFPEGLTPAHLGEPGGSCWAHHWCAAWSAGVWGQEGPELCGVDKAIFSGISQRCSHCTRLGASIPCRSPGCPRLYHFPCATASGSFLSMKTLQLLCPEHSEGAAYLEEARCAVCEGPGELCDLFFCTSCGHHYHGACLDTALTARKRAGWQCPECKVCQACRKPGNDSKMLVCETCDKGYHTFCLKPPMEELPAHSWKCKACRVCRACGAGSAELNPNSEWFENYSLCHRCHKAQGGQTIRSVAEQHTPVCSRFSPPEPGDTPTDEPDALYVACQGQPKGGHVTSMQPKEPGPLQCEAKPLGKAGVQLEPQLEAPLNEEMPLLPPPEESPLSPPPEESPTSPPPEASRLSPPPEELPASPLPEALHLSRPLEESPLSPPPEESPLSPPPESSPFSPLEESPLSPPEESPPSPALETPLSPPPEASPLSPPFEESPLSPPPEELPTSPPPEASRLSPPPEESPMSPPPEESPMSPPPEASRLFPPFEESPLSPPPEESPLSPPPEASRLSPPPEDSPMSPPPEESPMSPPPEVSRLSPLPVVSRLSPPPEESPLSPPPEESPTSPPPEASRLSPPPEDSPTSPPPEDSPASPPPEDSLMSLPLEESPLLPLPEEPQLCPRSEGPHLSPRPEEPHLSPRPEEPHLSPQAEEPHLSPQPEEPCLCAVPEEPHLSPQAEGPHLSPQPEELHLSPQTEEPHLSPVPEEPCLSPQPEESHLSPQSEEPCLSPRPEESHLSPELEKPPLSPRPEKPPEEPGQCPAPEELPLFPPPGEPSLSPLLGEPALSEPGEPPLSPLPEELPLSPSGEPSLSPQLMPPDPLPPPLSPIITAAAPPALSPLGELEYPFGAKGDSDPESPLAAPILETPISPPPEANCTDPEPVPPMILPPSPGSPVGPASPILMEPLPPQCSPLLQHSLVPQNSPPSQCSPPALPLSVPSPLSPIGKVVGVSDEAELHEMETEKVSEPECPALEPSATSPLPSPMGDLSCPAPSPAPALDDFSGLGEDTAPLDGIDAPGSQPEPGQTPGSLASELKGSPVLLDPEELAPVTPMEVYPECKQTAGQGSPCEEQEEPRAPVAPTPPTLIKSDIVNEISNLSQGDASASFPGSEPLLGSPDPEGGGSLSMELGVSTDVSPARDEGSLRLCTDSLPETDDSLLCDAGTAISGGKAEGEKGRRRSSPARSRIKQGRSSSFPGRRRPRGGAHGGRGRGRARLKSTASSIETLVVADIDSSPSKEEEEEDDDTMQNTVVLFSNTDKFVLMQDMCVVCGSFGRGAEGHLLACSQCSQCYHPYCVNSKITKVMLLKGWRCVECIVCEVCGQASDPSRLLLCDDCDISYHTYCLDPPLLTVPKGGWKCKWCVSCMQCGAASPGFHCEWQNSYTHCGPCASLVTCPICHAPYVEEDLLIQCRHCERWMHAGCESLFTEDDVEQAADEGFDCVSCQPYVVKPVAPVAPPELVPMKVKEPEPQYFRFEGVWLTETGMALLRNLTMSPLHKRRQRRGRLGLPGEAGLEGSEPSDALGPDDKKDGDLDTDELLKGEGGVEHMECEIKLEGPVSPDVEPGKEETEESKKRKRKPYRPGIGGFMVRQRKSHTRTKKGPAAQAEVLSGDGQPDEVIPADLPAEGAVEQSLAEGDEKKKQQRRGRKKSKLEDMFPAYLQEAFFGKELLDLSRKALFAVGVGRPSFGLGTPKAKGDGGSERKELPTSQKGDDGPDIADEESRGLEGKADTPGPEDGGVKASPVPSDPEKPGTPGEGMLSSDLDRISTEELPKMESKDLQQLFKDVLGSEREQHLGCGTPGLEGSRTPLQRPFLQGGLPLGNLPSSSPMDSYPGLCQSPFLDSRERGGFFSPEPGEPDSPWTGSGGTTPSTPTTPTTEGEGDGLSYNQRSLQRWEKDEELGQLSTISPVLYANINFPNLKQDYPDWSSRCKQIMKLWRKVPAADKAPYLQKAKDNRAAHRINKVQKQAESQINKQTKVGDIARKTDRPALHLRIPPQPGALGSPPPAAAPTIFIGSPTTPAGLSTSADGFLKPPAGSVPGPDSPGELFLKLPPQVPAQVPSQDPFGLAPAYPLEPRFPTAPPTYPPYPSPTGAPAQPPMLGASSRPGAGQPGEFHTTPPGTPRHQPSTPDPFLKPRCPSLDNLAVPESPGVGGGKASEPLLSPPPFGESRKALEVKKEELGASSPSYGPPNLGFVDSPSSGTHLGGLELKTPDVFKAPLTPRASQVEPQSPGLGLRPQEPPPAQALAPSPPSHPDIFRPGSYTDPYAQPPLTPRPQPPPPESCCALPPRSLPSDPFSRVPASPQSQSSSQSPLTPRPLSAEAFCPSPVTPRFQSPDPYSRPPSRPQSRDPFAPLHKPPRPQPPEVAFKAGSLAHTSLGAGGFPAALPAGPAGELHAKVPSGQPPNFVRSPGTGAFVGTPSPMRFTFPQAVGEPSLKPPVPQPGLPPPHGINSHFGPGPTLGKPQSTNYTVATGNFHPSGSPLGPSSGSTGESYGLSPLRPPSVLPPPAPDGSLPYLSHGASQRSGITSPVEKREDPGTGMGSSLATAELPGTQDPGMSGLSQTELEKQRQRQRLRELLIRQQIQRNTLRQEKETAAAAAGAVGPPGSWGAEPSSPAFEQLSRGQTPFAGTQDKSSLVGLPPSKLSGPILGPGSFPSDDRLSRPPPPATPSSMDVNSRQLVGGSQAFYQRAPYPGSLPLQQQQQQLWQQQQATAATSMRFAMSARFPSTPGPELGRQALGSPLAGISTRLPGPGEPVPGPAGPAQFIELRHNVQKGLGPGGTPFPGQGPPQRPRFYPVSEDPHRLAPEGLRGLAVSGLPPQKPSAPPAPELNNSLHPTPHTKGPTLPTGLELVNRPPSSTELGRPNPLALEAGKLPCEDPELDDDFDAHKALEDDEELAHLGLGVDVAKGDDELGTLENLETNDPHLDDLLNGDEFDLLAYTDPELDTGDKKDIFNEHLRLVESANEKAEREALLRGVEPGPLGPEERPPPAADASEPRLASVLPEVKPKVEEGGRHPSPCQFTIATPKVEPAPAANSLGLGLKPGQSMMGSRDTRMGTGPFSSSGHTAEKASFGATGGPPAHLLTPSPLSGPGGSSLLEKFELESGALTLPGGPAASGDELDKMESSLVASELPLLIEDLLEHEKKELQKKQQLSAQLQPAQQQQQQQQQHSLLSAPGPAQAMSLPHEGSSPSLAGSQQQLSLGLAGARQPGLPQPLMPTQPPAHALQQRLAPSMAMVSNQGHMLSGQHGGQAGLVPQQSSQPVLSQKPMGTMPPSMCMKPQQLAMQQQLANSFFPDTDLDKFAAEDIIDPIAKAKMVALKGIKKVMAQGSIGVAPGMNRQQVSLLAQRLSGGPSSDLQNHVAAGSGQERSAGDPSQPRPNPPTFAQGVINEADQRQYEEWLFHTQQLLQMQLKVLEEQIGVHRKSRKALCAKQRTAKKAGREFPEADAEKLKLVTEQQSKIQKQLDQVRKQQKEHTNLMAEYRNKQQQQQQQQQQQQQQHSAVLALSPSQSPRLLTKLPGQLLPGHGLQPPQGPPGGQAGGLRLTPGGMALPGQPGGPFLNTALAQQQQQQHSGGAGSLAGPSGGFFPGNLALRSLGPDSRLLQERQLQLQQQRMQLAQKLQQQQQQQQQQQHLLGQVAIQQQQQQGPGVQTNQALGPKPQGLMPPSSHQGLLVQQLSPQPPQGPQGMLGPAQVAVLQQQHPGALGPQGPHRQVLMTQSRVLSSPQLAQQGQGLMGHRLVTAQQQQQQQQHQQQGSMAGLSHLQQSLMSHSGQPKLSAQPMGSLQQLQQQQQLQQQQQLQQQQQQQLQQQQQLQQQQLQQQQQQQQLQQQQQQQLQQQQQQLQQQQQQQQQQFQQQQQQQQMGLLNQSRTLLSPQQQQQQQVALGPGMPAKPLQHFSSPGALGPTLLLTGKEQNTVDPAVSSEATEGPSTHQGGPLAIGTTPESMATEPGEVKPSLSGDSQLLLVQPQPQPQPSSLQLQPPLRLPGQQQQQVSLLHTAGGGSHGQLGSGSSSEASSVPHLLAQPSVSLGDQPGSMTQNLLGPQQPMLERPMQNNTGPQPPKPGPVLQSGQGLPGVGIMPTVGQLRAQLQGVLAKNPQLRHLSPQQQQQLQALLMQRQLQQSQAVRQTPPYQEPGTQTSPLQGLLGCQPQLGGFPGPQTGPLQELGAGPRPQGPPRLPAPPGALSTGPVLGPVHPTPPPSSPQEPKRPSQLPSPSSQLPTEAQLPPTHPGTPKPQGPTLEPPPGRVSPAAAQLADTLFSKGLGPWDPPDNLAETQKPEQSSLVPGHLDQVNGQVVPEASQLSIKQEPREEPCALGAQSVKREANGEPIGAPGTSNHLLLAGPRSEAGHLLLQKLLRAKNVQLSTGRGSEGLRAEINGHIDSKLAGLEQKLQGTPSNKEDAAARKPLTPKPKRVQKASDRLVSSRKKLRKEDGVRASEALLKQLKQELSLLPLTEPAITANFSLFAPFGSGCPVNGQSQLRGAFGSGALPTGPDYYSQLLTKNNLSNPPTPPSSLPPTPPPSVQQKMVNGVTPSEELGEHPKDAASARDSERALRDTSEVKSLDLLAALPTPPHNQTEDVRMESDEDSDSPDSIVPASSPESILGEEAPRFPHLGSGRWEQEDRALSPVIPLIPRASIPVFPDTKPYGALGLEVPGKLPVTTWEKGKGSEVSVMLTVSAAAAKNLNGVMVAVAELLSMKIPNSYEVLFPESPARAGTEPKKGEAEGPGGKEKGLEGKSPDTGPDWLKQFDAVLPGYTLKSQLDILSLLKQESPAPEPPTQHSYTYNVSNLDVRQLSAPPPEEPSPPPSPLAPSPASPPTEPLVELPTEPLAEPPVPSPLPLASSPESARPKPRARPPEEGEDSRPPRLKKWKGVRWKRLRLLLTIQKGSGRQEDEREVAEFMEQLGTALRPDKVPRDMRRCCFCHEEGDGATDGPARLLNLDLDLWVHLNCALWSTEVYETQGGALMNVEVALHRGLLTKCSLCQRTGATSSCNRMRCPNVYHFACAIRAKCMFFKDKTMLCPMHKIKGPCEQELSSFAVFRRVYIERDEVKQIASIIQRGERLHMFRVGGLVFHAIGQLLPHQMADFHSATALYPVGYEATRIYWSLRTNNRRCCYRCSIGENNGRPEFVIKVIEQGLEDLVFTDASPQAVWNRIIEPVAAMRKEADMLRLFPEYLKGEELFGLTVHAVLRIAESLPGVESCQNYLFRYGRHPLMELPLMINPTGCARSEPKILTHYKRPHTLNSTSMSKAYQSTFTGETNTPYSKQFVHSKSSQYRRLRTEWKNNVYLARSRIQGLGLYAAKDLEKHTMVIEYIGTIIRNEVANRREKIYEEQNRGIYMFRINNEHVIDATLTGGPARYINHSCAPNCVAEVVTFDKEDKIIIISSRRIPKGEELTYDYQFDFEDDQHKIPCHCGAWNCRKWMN

Experiments:
Test in all cases: log2 fold change, soluble protein after heating vs DMSO (PISA); higher = thermal stabilisation; K562 lysate, 10 uM; active = over 0.2 and 3.5 SD of the protein, either way, in both replicates (recomputed)
erlotinib = compound: C#Cc1cccc(Nc2ncnc3cc(OCCOC)c(OCCOC)cc23)c1 [erlotinib]
Outline: (§1)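 Values give the log-two fold change in thermal stability against solvent controls, from duplicates. Crude K562 extract at 1 mg/mL protein, made by dounce homogenisation in PBS pH 7.4 with 1 mM MgCl2, was treated with 10 μM compound for 30 min. After 3 min heating across 48°C-58°C, aliquots were pooled, adjusted to 0.5% NP-40 at 4°C and centrifuged at 21,000xg for 90 min. The supernatant was measured by TMTpro 16plex LC-MS/MS with channel sums equalised.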

[1] = compound: C/C(=N\NC(=O)C1=CC(=CC=C1)S(=O)(=O)N2CCOCC2)/C3=C(C=CC(=C3)Cl)O
Outline: as §1

[2] = compound: C1=CC(=CC=C1C2=NC3=C(N2)C=C(C=C3)C(=O)N)OC4=CC=C(C=C4)Cl
Outline: as §1

[3] = compound: C1=CC2=C(C=CC(=C2)/C=C\3/C(=O)NC(=NCC4=CC=CS4)S3)N=C1
Outline: as §1

[4] = compound: C1=CC2=NC=CN=C2C=C1/C=C/3\C(=O)NC(=O)S3
Outline: as §1

[5] = compound: C1=CC=C(C=C1)C2=NC(=C(N2)C3=CC=NC=C3)C4=CC(=C(C=C4)Cl)O
Outline: as §1

[6] = compound: C1=CC=C2C(=C1)C3=NNC4=CC=CC(=C43)C2=O
Outline: as §1

[7] = compound: C1CCN(C1)C(=O)NC2=CC=CC(=C2)NC3=NC=C(C(=N3)NCCC4=CN=CN4)Br
Outline: as §1

[8] = compound: C1CN(CCC1(CC2=CC=C(C=C2)Cl)N)C3=NC=NC4=C3C=CN4
Outline: as §1

IRAK-1-4 Inhibitor I = compound: C1COCCN1CCN2C3=CC=CC=C3N=C2NC(=O)C4=CC(=CC=C4)[N+](=O)[O-] [IRAK-1-4 Inhibitor I]
Outline: as §1

ibrutinib = compound: C=CC(=O)N1CCC[C@@H](n2nc(-c3ccc(Oc4ccccc4)cc3)c3c(N)ncnc32)C1 [ibrutinib]
Outline: as §1

[9] = compound: CC(=O)c1cnc2ccc(-c3cc(Cl)c(O)c(Cl)c3)nc2c1N[C@H]1CC[C@H](CN(C)C)CC1
Outline: as §1

ralimetinib = compound: CC(C)(C)Cn1c(N)nc2ccc(-c3[nH]c(C(C)(C)C)nc3-c3ccc(F)cc3)nc21 [ralimetinib]
Outline: as §1

[10] = compound: CC(C)(O)CC(=O)NCCn1ccc2ncnc(Nc3ccc(Oc4cccc(C(F)(F)F)c4)c(Cl)c3)c21
Outline: as §1

[11] = compound: CC(C)C1=C2N=C(C=C(N2N=C1)NCC3=CC=CC=C3)NCCCCCCN
Outline: as §1

[12] = compound: CC1=C(C(CC(=O)N1)C2=CC=C(C=C2)C(F)(F)F)C(=O)NC3=C(C=C4C(=C3)C=NN4)F
Outline: as §1

[13] = compound: CC1=C(C2=C(C=C1)C(=O)C3=CC=CC=C3N2CCCN)C
Outline: as §1

[14] = compound: CC1=C(C=C(C=C1)NC(=O)C2=CC(=CC=C2)C(C)(C)C#N)NC3=CC4=C(C=C3)N=CN(C4=O)C
Outline: as §1

[15] = compound: CC1=C(C=C(C=C1)NC(=O)C2=CC(=CC=C2)N(C)C)NC(=O)C3=CC=C(C=C3)O
Outline: as §1

[16] = compound: CC1=CC=C(C=C1)SC2=C3C=C(SC3=CN=C2)C(=O)N
Outline: as §1

Measured: log2 fold change

KPNB1 (UniProt Q14974)
inactive: erlotinib 0.025 | [1] -0.022 | [2] 0.008 | [3] -0.001 | [4] 0.008 | [5] -0.007 | [6] -0.012 | [7] -0.005 | [8] 0.029 | IRAK-1-4 Inhibitor I 0.008 | ibrutinib -0.023 | [9] 0 | ralimetinib -0.002 | [10] -0.027 | [11] -0.01 | [12] -0.02 | [13] -0.014 | [14] 0.013 | [15] 0.009 | [16] -0.009

KNL1 (UniProt Q8NG31)
inactive: erlotinib -0.005 | [1] -0.015 | [2] 0.002 | [3] 0 | [4] -0.017 | [5] 0.019 | [6] -0.015 | [7] 0.006 | [8] -0.007 | IRAK-1-4 Inhibitor I 0.002 | ibrutinib 0.009 | [9] -0.014 | ralimetinib 0.012 | [10] -0.032 | [11] 0.013 | [12] 0.012 | [13] -0.022 | [14] 0 | [15] 0.004 | [16] 0.012

LARS (UniProt Q9P2J5)
inactive: erlotinib 0.021 | [1] 0.05 | [2] -0.024 | [3] 0.024 | [4] 0.013 | [5] 0.016 | [6] -0.026 | [7] -0.012 | [8] -0.002 | IRAK-1-4 Inhibitor I -0.032 | ibrutinib -0.021 | [9] -0.003 | ralimetinib 0.023 | [10] 0.048 | [11] 0.021 | [12] -0.001 | [13] -0.017 | [14] -0.041 | [15] 0.029 | [16] 0.022

L3HYPDH (UniProt Q96EM0)
inactive: erlotinib -0.004 | [1] 0.057 | [2] 0.028 | [3] -0.027 | [4] 0.033 | [5] -0.03 | [6] -0.048 | [7] 0 | [8] 0.038 | IRAK-1-4 Inhibitor I 0.029 | ibrutinib -0.004 | [9] 0.039 | ralimetinib -0.021 | [10] -0.004 | [11] 0.004 | [12] -0.044 | [13] -0.001 | [14] 0.032 | [15] 0.018 | [16] -0.024

KIF21A isoform 5 (UniProt Q7Z4S6)
inactive: erlotinib -0.025 | [1] 0.022 | [2] -0.002 | [3] 0.01 | [4] -0.013 | [5] -0.016 | [6] -0.034 | [7] -0.009 | [8] 0.01 | IRAK-1-4 Inhibitor I -0.002 | ibrutinib 0.027 | [9] -0.002 | ralimetinib 0.015 | [10] 0 | [11] 0.002 | [12] 0.034 | [13] -0.031 | [14] 0.025 | [15] 0.014 | [16] 0.024

KLHL18 (UniProt O94889)
inactive: erlotinib 0.019 | [1] -0.01 | [2] -0.033 | [3] -0.057 | [4] 0.055 | [5] 0.042 | [6] -0.064 | [7] -0.042 | [8] 0.026 | IRAK-1-4 Inhibitor I 0.003 | ibrutinib 0.018 | [9] 0.005 | ralimetinib 0.026 | [10] -0.007 | [11] 0.045 | [12] 0.073 | [13] -0.034 | [14] -0.001 | [15] 0.011 | [16] 0.022

KTI12 (UniProt Q96EK9)
inactive: erlotinib 0.001 | [1] -0.066 | [2] 0.035 | [3] -0.041 | [4] -0.022 | [5] -0.008 | [6] -0.149 | [7] -0.046 | [8] 0.056 | IRAK-1-4 Inhibitor I -0.008 | ibrutinib -0.013 | [9] 0.014 | ralimetinib 0.008 | [10] -0.081 | [11] 0.017 | [12] 0.015 | [13] -0.029 | [14] -0.003 | [15] 0.045 | [16] 0.028

KLHDC4 (UniProt Q8TBB5)
inactive: erlotinib -0.017 | [1] -0.159 | [2] 0.056 | [3] 0.069 | [4] -0.011 | [5] -0.013 | [6] 0.008 | [7] 0.028 | [8] -0.023 | IRAK-1-4 Inhibitor I -0.03 | ibrutinib 0.053 | [9] -0.003 | ralimetinib 0.062 | [10] -0.002 | [11] 0.018 | [12] 0.016 | [13] 0.144 | [14] 0 | [15] 0.013 | [16] 0.028

KIAA0100 (UniProt Q14667)
inactive: erlotinib -0.069 | [1] 0.021 | [2] 0.029 | [3] -0.196 | [4] 0.013 | [5] -0.03 | [6] -0.141 | [7] 0.055 | [8] 0.236 | IRAK-1-4 Inhibitor I 0.011 | ibrutinib -0.047 | [9] 0 | ralimetinib -0.027 | [10] -0.167 | [11] 0.042 | [12] 0.009 | [13] -0.091 | [14] -0.005 | [15] 0.068 | [16] 0.036

KIN (UniProt O60870)
inactive: erlotinib 0.102 | [1] -0.027 | [2] 0.007 | [3] 0.014 | [4] 0.037 | [5] -0.039 | [6] -0.114 | [7] -0.008 | [8] -0.008 | IRAK-1-4 Inhibitor I 0.009 | ibrutinib -0.051 | [9] 0.032 | ralimetinib 0.056 | [10] 0.047 | [11] 0.006 | [12] -0.058 | [13] 0.043 | [14] -0.02 | [15] 0.023 | [16] -0.015

LAMP2 (UniProt P13473)
inactive: erlotinib -0.054 | [1] 0.009 | [2] 0.034 | [3] 0.018 | [4] 0.008 | [5] -0.048 | [6] 0.096 | [7] 0.007 | [8] -0.023 | IRAK-1-4 Inhibitor I 0.035 | ibrutinib -0.005 | [9] -0.008 | ralimetinib 0.005 | [10] -0.019 | [11] -0.031 | [12] 0.027 | [13] 0.023 | [14] -0.034 | [15] 0.001 | [16] 0.02

KDM6A (UniProt O15550)
inactive: erlotinib -0.022 | [1] -0.039 | [2] 0.061 | [3] 0 | [4] 0.006 | [5] 0.023 | [6] -0.064 | [7] 0.004 | [8] 0.045 | IRAK-1-4 Inhibitor I 0.017 | ibrutinib -0.007 | [9] 0.012 | ralimetinib 0.003 | [10] -0.028 | [11] 0.025 | [12] -0.007 | [13] -0.065 | [14] 0.009 | [15] -0.004 | [16] 0.022

LAMTOR1 (UniProt Q6IAA8)
inactive: erlotinib 0.025 | [1] -0.018 | [2] -0.055 | [3] -0.012 | [4] -0.078 | [5] -0.023 | [6] 0.013 | [7] 0.014 | [8] 0.049 | IRAK-1-4 Inhibitor I 0.035 | ibrutinib 0.053 | [9] -0.063 | ralimetinib 0.001 | [10] -0.036 | [11] -0.009 | [12] 0.008 | [13] -0.09 | [14] 0.023 | [15] 0.025 | [16] 0.039

KMT2D isoform 3 (UniProt O14686)
inactive: erlotinib -0.004 | [1] -0.022 | [2] 0.031 | [3] -0.001 | [4] -0.023 | [5] -0.001 | [6] -0.006 | [7] -0.004 | [8] -0.016 | IRAK-1-4 Inhibitor I -0.006 | ibrutinib 0.007 | [9] 0.001 | ralimetinib 0.021 | [10] -0.022 | [11] 0.009 | [12] -0.004 | [13] -0.013 | [14] 0.005 | [15] 0.014 | [16] 0.003

LAMTOR5 (UniProt O43504)
inactive: erlotinib 0.067 | [1] -0.015 | [2] -0.031 | [3] 0.032 | [4] -0.025 | [5] -0.011 | [6] 0.018 | [7] -0.111 | [8] 0.071 | IRAK-1-4 Inhibitor I -0.02 | ibrutinib 0.026 | [9] -0.035 | ralimetinib 0.078 | [10] -0.039 | [11] 0.011 | [12] -0.118 | [13] -0.019 | [14] 0.008 | [15] -0.032 | [16] 0.048

KHDC4 (UniProt Q7Z7F0)
inactive: erlotinib -0.021 | [1] -0.063 | [2] 0.015 | [3] -0.025 | [4] -0.014 | [5] -0.063 | [6] 0.006 | [7] -0.023 | [8] 0.014 | IRAK-1-4 Inhibitor I 0.062 | ibrutinib 0.03 | [9] -0.006 | ralimetinib 0.007 | [10] -0.051 | [11] -0.028 | [12] -0.044 | [13] 0.018 | [14] 0.013 | [15] -0.053 | [16] -0.014
